{"sequences": {"note": "Sequences of proteins named here, by UniProt entry; tags and fusion partners are left off.", "UniProt Q59LN9": "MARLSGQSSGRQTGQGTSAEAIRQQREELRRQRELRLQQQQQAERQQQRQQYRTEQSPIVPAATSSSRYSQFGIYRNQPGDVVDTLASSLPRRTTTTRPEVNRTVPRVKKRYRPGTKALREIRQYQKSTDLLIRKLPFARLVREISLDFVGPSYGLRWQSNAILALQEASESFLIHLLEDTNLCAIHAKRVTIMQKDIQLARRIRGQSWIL"}, "source": "paper PMC3998917", "key": {"Rad52-V5 (C. albicans)": {"target": "T1, Rad52-V5 (C. albicans) (UniProt Q59NG2)", "T1 sequence": "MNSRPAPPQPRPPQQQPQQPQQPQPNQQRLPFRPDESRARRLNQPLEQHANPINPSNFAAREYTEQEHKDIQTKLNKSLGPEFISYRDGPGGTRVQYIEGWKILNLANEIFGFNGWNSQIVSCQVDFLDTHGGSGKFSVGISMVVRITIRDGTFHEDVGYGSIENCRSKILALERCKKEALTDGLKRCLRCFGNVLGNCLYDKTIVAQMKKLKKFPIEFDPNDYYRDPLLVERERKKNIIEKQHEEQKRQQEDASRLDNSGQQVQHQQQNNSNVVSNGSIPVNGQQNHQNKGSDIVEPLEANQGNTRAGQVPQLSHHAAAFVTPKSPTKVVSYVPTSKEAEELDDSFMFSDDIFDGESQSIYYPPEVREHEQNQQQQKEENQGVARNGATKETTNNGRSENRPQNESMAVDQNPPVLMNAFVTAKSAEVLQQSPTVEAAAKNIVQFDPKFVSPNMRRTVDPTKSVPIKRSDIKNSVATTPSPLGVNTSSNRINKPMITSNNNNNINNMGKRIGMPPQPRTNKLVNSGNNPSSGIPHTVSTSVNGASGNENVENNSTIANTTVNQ", "assay": "co-IP; anti-V5 on Protein A-Sepharose 4B beads added to 0.8 ml crude extract (around 3 mg total protein) of Rad51-V5 or Rad52-V5 C. albicans strains, overnight at 4°C, washed four times with TBS-T; western blot with anti-CENP-A^CaCse4; untagged strains and no-antibody fractions as controls"}, "Rad51-V5 (C. albicans)": {"target": "T2, Rad51-V5 (C. albicans) (UniProt Q59UY8)", "T2 sequence": "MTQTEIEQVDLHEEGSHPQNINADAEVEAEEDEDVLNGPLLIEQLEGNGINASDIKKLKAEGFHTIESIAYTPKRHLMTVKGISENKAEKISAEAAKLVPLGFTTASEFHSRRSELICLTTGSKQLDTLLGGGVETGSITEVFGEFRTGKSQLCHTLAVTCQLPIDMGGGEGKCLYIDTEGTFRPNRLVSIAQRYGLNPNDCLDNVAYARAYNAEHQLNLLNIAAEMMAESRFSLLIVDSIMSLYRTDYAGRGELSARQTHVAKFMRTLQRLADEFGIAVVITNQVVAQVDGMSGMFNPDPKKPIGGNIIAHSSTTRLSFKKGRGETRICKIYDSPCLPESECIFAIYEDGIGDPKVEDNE", "assay": "co-IP; anti-V5 on Protein A-Sepharose 4B beads added to 0.8 ml crude extract (around 3 mg total protein) of Rad51-V5 or Rad52-V5 C. albicans strains, overnight at 4°C, washed four times with TBS-T; western blot with anti-CENP-A^CaCse4; untagged strains and no-antibody fractions as controls"}}, "note": "No constants are given. Whether binding was seen depends on the method and setting. Binding seen in cells or lysates may run through a third protein. Some binding calls cover weakened binding; strength is not graded here. Sequences can lack the tags named with a protein."}
{"substance": "CENP-A^CaCse4 (from UniProt Q59LN9 1-211)", "values": [{"measurement": "binding", "setting": "Rad52-V5 (C. albicans)", "value": "binds"}, {"measurement": "binding", "setting": "Rad51-V5 (C. albicans)", "value": "binds"}]}
